## Primary screen of a compound library

Source: ChEMBL document CHEMBL3988442, “University of Dundee, Small-Polar-MMV Screening Library” (2021).

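Whole-cell assay for inhibitors of Mycobacterium tuberculosis growth, labelled Cornell in the record; the read-out is not stated. The concentration is filed as 10 mM, unlikely as a test dose, so the dose is not known. Higher means stronger inhibition (inferred from two other growth screens of the library). Size under these conditions: about 53,000 compounds, about 900 of them at 50% or above in at least one test.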

Results are given as percent effect. How 0% and 100% were set is not recorded. Most values in the screen are low, and negative values occur. The compounds are a random part of those screened.

{"structure": "Cc1cc(C)n(C2CCCN(C(=O)CN(C)c3cnccn3)C2)n1", "stereo": "configuration not stated", "Percent Effect": -81.97}
{"structure": "Cc1nc(CN2CCN(C(=O)c3scnc3C)CC2)cs1", "Percent Effect": 31.67}
{"structure": "CC1(C)CNC(=O)c2nc(C3CCCN(S(C)(=O)=O)C3)[nH]c2C1", "stereo": "configuration not stated", "Percent Effect": 2.379}
{"structure": "c1ccc2oc(N3CCCC3Cn3cncn3)nc2c1", "stereo": "configuration not stated", "Percent Effect": -7.53}
{"structure": "CCn1nc(C)c(CN(CCCN(C)C)Cc2ccccn2)c1C", "Percent Effect": -18.89}
{"structure": "O=C(CN1CCOC(c2ccc(Cl)s2)C1)NCc1ccco1", "stereo": "configuration not stated", "Percent Effect": 1.035}
{"structure": "CC(=O)c1cccc(NC(=O)Cn2cnc(-c3cccs3)cc2=O)c1", "Percent Effect": -0.621}
{"structure": "CC(C)N(CC(N)=O)C(=O)c1cc(F)ccc1N1CCN(C)CC1", "Percent Effect": 11.38}
{"structure": "Cc1cccc(COc2ccc(C(C)NS(N)(=O)=O)cc2)c1", "stereo": "configuration not stated", "Percent Effect": 9.784}
{"structure": "COc1ccc(-n2cc(CNC(=O)c3ccc[nH]3)nn2)cc1", "Percent Effect": 1.2}
{"structure": "CCn1c(C)nnc1SCCNc1nc(C)ncc1S(C)(=O)=O", "Percent Effect": 2.787}
{"structure": "Cn1nccc1CNC(=O)C1CCCCC1", "Percent Effect": 2.737}
{"structure": "[H][C@@]12C[C@@H](c3nc(C)no3)CN(S(C)(=O)=O)[C@]1([H])CCO2", "Percent Effect": 37.44}
{"structure": "O=C(c1cc(C2CC2)[nH]n1)N1CCN(c2nccs2)CC1", "Percent Effect": -12.43}
{"structure": "Cc1cc(N2CCC(O)CC2)nc(C)n1", "Percent Effect": -11.53}
{"structure": "Cc1c(Br)cnn1CC(=O)Nc1ccon1", "Percent Effect": 30.65}
{"structure": "O=C(O)C(F)(F)F.O=C(O)C(F)(F)F.[H][C@]12CCN(c3ncc(F)cn3)[C@@]1([H])CC[C@H](COCc1ccccn1)O2", "Percent Effect": 13.16}
{"structure": "CCCc1nc(N2CC[C@@H](c3ccc4c(c3)OCO4)[C@H](O)C2)no1", "Percent Effect": 16.01}
{"structure": "COCC(=O)N1CCC2(CCCN(Cc3ccc(Cl)cc3)CC2)CC1", "Percent Effect": 11.54}
{"structure": "N#Cc1ccc(C2CC(=O)Nc3c2cnn3C2CCCC2)cc1", "stereo": "configuration not stated", "Percent Effect": 22.15}
{"structure": "CCCc1nnc(SCc2cc(=O)n3c4c(sc3n2)CCCC4)[nH]1", "Percent Effect": 35.23}
{"structure": "CN(C)C(=O)c1csc(-c2ccoc2)n1", "Percent Effect": -1.002}
{"structure": "CC1c2ncc(COCC3CC3)n2CCN1C(=O)c1ccnnc1", "stereo": "configuration not stated", "Percent Effect": 20.14}
{"structure": "Cl.Cl.Clc1cccc(C[C@@H]2NCCC[C@@H]2Nc2cccc(Cl)c2)c1", "Percent Effect": 108.9}
{"structure": "Cc1nc2cc(CNC(=O)C3CC(=O)N(CCN(C)C)C3)ccc2n1C", "stereo": "configuration not stated", "Percent Effect": 32.4}
{"structure": "O=C(CN1CCOCC1)N1CCC(c2cc(N3CCCC3)ncn2)CC1", "Percent Effect": -29.38}
{"structure": "O=C(O)C(F)(F)F.O=C(O)C(F)(F)F.[H][C@@]12CCCO[C@]1([H])[C@H](Oc1ncccc1F)CN2Cc1ccccn1", "Percent Effect": 2.355}
{"structure": "O=C(NCc1ccc(-n2cncn2)nc1)c1ccc2c(c1)CCO2", "Percent Effect": 10.77}
{"structure": "Cc1ccc2c(n1)N(CC1CC1)CCN(Cc1cnn(C)c1)C2", "Percent Effect": -13.81}
{"structure": "Cc1ccc(C(=O)NC2CCN(Cc3nc(C(C)C)no3)CC2)s1", "Percent Effect": 5.687}
{"structure": "O=C1CCCN1Cc1nc(-c2ccsc2)no1", "Percent Effect": -8.293}
{"structure": "O=C(O)C(F)(F)F.O=C(O)C(F)(F)F.O=C(O)C(F)(F)F.[H][C@@]12CN(Cc3ccsc3)C[C@]1([H])OCCN2CCN1CCCC1", "Percent Effect": 36.72}
{"structure": "CS(=O)(=O)N1CCN(c2ccnc(N3CCCC3)n2)CC1", "Percent Effect": 7.415}
{"structure": "Cc1nc2cc(O)nn2c(C)c1CCC(=O)NCc1cc(Br)cs1", "Percent Effect": -42.22}
{"structure": "Cc1ccnc(C2(C)CCCN2S(=O)(=O)c2cccnc2)n1", "stereo": "configuration not stated", "Percent Effect": -3.766}
{"structure": "Cn1c(C(=O)NCC2(N)CCCC2)cc2ccccc21", "Percent Effect": 17.57}
{"structure": "CC(=O)N1CCOC(c2cncc(CCC(N)=O)n2)C1", "stereo": "configuration not stated", "Percent Effect": -31.12}
{"structure": "COc1cccc(-c2cccc(N3CCC(N[C@@H]4CCOC4)CC3)c2)c1", "Percent Effect": 39.62}
{"structure": "CN(Cc1cccnc1)c1nc(-c2ccccn2)nc2c1CCNCC2", "Percent Effect": 31.77}
{"structure": "CC1CCN(C(=O)CN2CC(c3nc(C4CC4)no3)C2)CC1.O=C(O)C(=O)O", "Percent Effect": -25.89}
{"structure": "Cc1cc(N(C)C)nc(C2COCCN2Cc2nccn2C)n1", "stereo": "configuration not stated", "Percent Effect": 26.07}
{"structure": "O=C(O)C(F)(F)F.O=C(O)C(F)(F)F.O=C1CC(c2ccncc2)C2(CCN(Cc3ccc(F)cc3)CC2)N1", "stereo": "configuration not stated", "Percent Effect": 11.09}
{"structure": "COc1cc(Cl)c(CN2CCC(C(N)=O)C2)cc1Cl", "stereo": "configuration not stated", "Percent Effect": 35.05}
{"structure": "NC(=O)C1CCN(CCCNC(=O)Nc2nccs2)CC1", "Percent Effect": 0.5784}
{"structure": "O=C(O)C(F)(F)F.[H][C@]12CCC[C@@]1(COCc1cccnc1)CN(S(=O)(=O)N(C)C)C2", "Percent Effect": 13.86}
{"structure": "O=C(O)C(F)(F)F.O=S(=O)(C1CC1)N1CCn2cc(CNc3ccccn3)nc2C1", "Percent Effect": 27.55}
{"structure": "CC1CCCN(C(=O)c2ccc(-c3ccco3)o2)C1", "stereo": "configuration not stated", "Percent Effect": 79.8}
{"structure": "COc1ccccc1S(=O)(=O)N1CCC2(CC1)OCCCC2O", "stereo": "configuration not stated", "Percent Effect": 16.4}
{"structure": "Cn1cc(C[C@H]2[C@H](O)CCN2CC2CCOCC2)cn1.O=C(O)C(F)(F)F", "Percent Effect": -60.46}
{"structure": "CN(C)[C@H]1C[C@@H](Cc2cc(CO)on2)C1(C)C", "Percent Effect": -12.66}
{"structure": "Cc1cc(C)c2c(N3CCCN(C(=O)C4CCC4)CC3)ncnc2n1", "Percent Effect": 13.96}
{"structure": "COc1cc(CNC(=O)C(C)SC)cc(Br)c1OC", "stereo": "configuration not stated", "Percent Effect": 14.82}
{"structure": "CN1CCOC(C(=O)Nc2nnc(Cc3ccc(F)cc3)[nH]2)C1", "stereo": "configuration not stated", "Percent Effect": 14.75}
{"structure": "Cc1ncc(COc2ccc(N(C)S(C)(=O)=O)cc2)s1", "Percent Effect": -1.975}
{"structure": "CC(C)NC(=O)NCc1ccnc(N(C)C)n1", "Percent Effect": 13.63}
{"structure": "CN(Cc1ccco1)Cc1ccccc1CNC(=O)c1csnn1", "Percent Effect": 30.74}
{"structure": "COc1ccc(-c2n[nH]c(C)c2CC(=O)NCC2CCOCC2)cc1", "Percent Effect": -8.101}
{"structure": "Cc1ccc(NC2CCN(C(=O)CCc3ccco3)CC2)nn1", "Percent Effect": 9.645}
{"structure": "[H][C@@]12CS(=O)(=O)C[C@]1([H])N(C(=O)c1cccs1)CCN2Cc1[nH]cnc1C", "Percent Effect": 26.79}

For reference, 6 entries once more:

structure	Percent Effect
COc1ccccc1S(=O)(=O)N1CCC2(CC1)OCCCC2O (configuration not stated)	16.4%
CCCc1nc(N2CC[C@@H](c3ccc4c(c3)OCO4)[C@H](O)C2)no1	16.01%
CC1c2ncc(COCC3CC3)n2CCN1C(=O)c1ccnnc1 (configuration not stated)	20.14%
[H][C@@]12CS(=O)(=O)C[C@]1([H])N(C(=O)c1cccs1)CCN2Cc1[nH]cnc1C	26.79%
O=C(c1cc(C2CC2)[nH]n1)N1CCN(c2nccs2)CC1	-12.43%
COc1cc(Cl)c(CN2CCC(C(N)=O)C2)cc1Cl (configuration not stated)	35.05%